From publication PMC11481542
No constants are given. Whether binding was seen depends on the method and setting. For some assays here: In cells and extracts the contact can be indirect. Some binding calls cover weakened binding; strength is not graded here. For some assays here: Sequences can lack the tags named with a protein.

Chains of the proteins cited; added tags and fusions are not shown. Lines headed by an entry give the natural chain unless they say otherwise; changes in a name come on top.
UniProt P15144: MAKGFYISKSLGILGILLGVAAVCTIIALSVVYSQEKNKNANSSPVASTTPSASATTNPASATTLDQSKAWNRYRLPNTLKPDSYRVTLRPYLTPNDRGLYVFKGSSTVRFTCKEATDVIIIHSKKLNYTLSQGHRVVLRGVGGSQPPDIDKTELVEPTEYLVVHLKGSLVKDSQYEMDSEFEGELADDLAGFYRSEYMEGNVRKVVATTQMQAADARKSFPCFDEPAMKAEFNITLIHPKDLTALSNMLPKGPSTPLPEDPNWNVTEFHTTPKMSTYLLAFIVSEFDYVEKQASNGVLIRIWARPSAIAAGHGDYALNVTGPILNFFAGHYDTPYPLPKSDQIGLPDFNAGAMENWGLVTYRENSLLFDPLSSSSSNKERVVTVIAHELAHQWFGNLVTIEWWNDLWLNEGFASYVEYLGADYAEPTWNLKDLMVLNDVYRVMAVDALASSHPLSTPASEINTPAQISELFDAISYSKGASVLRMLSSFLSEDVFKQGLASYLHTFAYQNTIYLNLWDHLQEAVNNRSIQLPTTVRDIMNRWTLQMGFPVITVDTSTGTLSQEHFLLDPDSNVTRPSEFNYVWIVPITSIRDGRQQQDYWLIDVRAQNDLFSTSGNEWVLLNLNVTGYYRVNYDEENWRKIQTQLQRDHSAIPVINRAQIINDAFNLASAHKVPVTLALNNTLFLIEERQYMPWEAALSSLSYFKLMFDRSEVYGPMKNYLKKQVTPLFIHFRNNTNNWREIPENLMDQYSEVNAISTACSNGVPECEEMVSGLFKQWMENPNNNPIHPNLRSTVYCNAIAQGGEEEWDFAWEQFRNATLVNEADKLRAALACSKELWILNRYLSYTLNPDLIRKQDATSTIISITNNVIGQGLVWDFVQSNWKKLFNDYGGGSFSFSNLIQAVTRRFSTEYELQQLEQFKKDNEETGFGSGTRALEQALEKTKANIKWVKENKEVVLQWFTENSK

How the values were obtained:
[1] = molecular target: A. phagocytophilum invasion protein A residues 1-87 (AipA_(1–87)) extracellular domain, yeast two-hybrid bait (Anaplasma phagocytophilum) (UniProt Q2GJG3); test: two-hybrid; ULTImate yeast two-hybrid screen (Hybrigenics Services); AipA_(1–87) bait (C-terminal LexA or GAL4 fusion) mated with yeast bearing a randomly primed human leukocyte cDNA library (prey)
[2] = molecular target: Flag-tagged human CD13 (aminopeptidase N) (human) (UniProt P15144); test: co-IP; HeLa cells co-transfected with Flag-CD13 and GFP-tagged AipA fragments, 24 h; lysates (50 mM Tris base, 400 nM NaCl as printed, 1 mM EDTA, 1% Triton X-100) precleared with protein A/G agarose, anti-Flag M2 affinity gel at 4°C overnight; western blot for GFP and Flag, GFP signal normalized to Flag

| Molecule | binding [1] | binding [2] |
| --- | --- | --- |
| CD13 (aminopeptidase N) C-terminal amino acids 851–967, yeast two-hybrid prey fragment (from UniProt P15144 851-967) (domain or fragment) | binds | – |
| GFP-tagged AipA residues 2-89 (GFP-AipA_(2–89)) (domain or fragment, UniProt Q2GJG3 2-89) SFTMSKLSLDPTQGSHTAENIACSIFDMVLGVKSTAKLLAGTWAGTSSTIWKTVTGAASSTKEASSKSYGTLRSSLGSSASRRMLGTC | – | binds |
